Measured values: article PMC10808074, “Regulation of micro- and small-exon retention and other splicing processes by GRP20 for flower development”
Results are given in words; binding and its absence hold for the method and conditions named. In cells and extracts the contact can be indirect. Some results given as binding are weak or reduced against the parent protein; the word gives no strength.

Target: T1, JMJ16 in pXY106 (YFPc), BiFC positive control (UniProt C0SUT9)
T1 sequence: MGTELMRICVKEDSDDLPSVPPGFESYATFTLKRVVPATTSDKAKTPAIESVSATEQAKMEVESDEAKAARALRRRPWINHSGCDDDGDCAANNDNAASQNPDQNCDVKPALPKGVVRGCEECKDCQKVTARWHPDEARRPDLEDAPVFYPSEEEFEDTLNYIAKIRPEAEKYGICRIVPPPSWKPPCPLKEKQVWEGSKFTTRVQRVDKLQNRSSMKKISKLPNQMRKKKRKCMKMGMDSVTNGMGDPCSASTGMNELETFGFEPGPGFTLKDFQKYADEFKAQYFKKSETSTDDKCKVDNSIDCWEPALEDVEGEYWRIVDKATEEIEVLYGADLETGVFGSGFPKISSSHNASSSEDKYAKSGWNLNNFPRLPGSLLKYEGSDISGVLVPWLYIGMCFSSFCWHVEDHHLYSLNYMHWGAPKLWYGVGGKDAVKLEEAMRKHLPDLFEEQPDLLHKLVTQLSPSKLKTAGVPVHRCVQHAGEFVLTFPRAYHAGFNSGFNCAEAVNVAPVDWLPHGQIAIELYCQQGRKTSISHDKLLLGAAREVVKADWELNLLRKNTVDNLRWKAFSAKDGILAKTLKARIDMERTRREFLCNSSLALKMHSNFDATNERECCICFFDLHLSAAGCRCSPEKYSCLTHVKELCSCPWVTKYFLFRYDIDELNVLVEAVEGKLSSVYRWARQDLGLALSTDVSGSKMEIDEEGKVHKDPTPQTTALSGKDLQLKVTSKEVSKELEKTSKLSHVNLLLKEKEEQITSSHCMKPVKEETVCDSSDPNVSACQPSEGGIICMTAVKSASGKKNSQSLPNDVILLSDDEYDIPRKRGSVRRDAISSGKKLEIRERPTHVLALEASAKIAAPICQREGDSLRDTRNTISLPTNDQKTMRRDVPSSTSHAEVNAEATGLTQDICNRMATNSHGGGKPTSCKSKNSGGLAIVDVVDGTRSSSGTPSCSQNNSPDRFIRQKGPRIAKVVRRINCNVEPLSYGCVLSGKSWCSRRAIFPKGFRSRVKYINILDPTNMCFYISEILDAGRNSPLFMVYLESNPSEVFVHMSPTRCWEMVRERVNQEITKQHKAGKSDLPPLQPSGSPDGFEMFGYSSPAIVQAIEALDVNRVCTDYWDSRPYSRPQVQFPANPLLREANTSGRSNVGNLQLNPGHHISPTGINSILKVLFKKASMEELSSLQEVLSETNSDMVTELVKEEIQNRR
Assay: split reporter; BiFC (YFPn/YFPc) in N. benthamiana leaves, confocal microscopy

binding: binds
B1: MMD1 in pXY104 (YFPn), BiFC positive control (protein, UniProt Q7X6Y7 1-704)
chain: MPVPIIETCRKRKRKPKVYNLQRFGEDGFPIQRNGAFRDQIRVFLRDCAEIEDYDIRGMTVWCTLLSHETKSSLIPLYIVEENVKHSSEPYCDHCRCTGWSNHFVSKRKYHFIIPIDTEWSLPLEDDAFDSQSHVLHGLIHCNGFGHLVCVNGMESGSKYLCGREIVDFWDRLCNSLGARMITVEDLAKKRSVELRLLYGVAYGHSWFGRWGYKFCCGSFGVTKNEYENAIEALGSLEIDQIEFDFGELRQSKEINQVFRYYREMSEGHLKTFRDLLRFMLIIKSHASPQKLLPVTPPLLTDSPHQKRSSRLLLKKSDVADNDKSPKYRNYSTVAANLGSRWPVRRLIFAAEVIVESLKEMKALKQNGMTRQDVRDSARLHIGDTGLLDYVLKSMNNVVVGDVLVRRYVDPITRILHYTIQDLDDAVKAKEPKKKEAVVLEEITPLRILTPLKPGADVYGDLLLLYTNVLLNYPESELVRSATQAILDSKHFIKEWPIWDNNDTVLQFLCRINPSLVDVRSEQTTELPPGELVTVPLQATVYDLKQAIEETFRDTYCILSNFVVTEIDEVEEDMSLIGSCSALTVRGHGIDLESKLKCQGGCDTWMVKCICRARDDDGERMISCDVCEVWQHTRCCGIDDSDTLPPLFVCSNCCEEFAEQQRKVLQPKYEFPSSENVFLLESADDFFGDQRCLGMIFPEENYLL
